Test results reported in patent publication US20010038824A1 (priority 2000, published 2001).

Test: general procedure: peptide synthesis; BOP reagent, HOBT hydrate, N,N-diisopropylethylamine
Conditions: late stage modification step

Row | Substance | step yield
1 | N(orn)-Boc-IX | 45% yield
2 | N(val)-Boc-IX | 6% yield
3 | PEPTIDE1{[3OHC16].[ThrX].[AlaX].[TyrX].[ValX].[4HypX].[ThrX].[ThrX].[3HypX].[3OHGlnX].G.[ThrX].[OrnX(Sar)]}$PEPTIDE1,PEPTIDE1,1:R1-13:R2$$$V2.0 | 39% yield

Some peptides are written in HELM: one residue between dots, names in brackets for other building blocks, links after the first $.
